No constants are given. Whether binding was seen depends on the method and setting. In cells and extracts the contact can be indirect. Some binding calls cover weakened binding; strength is not graded here. Tags and fused reporters may be left off the sequences shown.
Target: Tumor progression locus 2 (Myc-TPL2) (UniProt Q07174)
Experiment: co-IP

Chains of the proteins cited; added tags and fusions are not shown.
UniProt Q07174: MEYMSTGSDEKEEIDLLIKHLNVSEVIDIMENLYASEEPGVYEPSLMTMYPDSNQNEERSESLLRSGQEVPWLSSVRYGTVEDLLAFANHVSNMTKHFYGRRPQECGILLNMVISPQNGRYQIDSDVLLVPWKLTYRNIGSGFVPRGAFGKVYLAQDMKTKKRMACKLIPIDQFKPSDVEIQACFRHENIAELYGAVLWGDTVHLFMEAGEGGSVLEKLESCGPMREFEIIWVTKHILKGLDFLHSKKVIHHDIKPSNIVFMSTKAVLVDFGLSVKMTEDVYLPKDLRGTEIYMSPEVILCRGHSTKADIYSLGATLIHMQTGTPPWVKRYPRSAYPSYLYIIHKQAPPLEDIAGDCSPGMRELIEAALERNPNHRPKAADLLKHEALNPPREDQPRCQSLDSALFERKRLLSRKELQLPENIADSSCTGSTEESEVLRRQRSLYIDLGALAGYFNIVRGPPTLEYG

B1: Interferon regulatory factor 3 (HA-IRF3) (protein, UniProt Q14653 1-427)
chain: MGTPKPRILPWLVSQLDLGQLEGVAWVNKSRTRFRIPWKHGLRQDAQQEDFGIFQAWAEATGAYVPGRDKPDLPTWKRNFRSALNRKEGLRLAEDRSKDPHDPHKIYEFVNSGVGDFSQPDTSPDTNGGGSTSDTQEDILDELLGNMVLAPLPDPGPPSLAVAPEPCPQPLRSPSLDNPTPFPNLGPSENPLKRLLVPGEEWEFEVTAFYRGRQVFQQTISCPEGLRLVGSEVGDRTLPGWPVTLPDPGMSLTDRGVMSYVRHVLSCLGGGLALWRAGQWLWAQRLGHCHTYWAVSEELLPNSGHGPDGEVPKDKEGGVFDLGPFIVDLITFTEGSGRSPRYALWFCVGESWPQDQPWTKRLVMVKVVPTCLRALVEMARVGGASSLENTVDLHISNSHPLSLTSDQYKAYLQDLVEGMDFQGPGES
binding: binds
